# Some of the results follow. Only hits are listed; about a third recur on repeated control peptides.
# Chains of the proteins cited; added tags and fusions are not shown.
# NUTF2, P61970, UniProt P61970, whole entry: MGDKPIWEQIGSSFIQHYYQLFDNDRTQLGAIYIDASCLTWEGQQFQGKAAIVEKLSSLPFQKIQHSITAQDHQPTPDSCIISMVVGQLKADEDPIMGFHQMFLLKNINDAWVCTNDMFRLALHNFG
# PDLIM7, Q9NR12, UniProt Q9NR12, whole entry: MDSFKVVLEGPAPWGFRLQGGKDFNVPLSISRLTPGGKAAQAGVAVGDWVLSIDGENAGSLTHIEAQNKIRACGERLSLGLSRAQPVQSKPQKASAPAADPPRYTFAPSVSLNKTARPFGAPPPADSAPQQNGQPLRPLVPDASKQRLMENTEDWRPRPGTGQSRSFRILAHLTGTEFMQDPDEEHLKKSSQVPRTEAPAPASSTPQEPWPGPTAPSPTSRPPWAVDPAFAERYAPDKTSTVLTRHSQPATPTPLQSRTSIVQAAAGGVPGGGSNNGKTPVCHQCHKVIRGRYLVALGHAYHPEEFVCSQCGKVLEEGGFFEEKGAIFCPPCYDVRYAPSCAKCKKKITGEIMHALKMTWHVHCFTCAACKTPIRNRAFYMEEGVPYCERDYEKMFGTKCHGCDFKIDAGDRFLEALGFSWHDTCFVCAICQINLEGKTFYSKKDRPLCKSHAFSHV
# PIN1, Q13526, UniProt Q13526, whole entry: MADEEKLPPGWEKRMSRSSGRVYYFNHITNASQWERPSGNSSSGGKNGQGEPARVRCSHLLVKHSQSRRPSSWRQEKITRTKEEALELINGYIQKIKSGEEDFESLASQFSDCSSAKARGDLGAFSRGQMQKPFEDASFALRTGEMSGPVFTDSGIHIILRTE
# PLK1, P53350, UniProt P53350, whole entry: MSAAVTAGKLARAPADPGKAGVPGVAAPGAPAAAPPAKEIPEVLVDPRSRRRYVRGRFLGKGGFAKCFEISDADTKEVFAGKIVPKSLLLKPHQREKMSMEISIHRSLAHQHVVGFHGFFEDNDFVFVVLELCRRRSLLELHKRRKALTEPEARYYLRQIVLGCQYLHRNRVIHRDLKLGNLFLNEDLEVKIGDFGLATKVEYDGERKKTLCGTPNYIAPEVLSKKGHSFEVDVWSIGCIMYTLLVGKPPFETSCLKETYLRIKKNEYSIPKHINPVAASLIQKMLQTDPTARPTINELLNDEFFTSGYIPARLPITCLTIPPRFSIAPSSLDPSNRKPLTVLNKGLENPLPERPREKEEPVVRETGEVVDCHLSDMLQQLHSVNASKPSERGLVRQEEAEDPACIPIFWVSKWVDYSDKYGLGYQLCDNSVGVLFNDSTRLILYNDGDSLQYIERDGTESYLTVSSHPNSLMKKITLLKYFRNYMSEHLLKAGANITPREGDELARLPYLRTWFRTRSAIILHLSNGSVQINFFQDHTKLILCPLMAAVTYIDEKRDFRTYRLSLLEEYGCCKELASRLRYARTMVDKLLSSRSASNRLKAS
# SMARCA4, P51532, UniProt P51532, whole entry: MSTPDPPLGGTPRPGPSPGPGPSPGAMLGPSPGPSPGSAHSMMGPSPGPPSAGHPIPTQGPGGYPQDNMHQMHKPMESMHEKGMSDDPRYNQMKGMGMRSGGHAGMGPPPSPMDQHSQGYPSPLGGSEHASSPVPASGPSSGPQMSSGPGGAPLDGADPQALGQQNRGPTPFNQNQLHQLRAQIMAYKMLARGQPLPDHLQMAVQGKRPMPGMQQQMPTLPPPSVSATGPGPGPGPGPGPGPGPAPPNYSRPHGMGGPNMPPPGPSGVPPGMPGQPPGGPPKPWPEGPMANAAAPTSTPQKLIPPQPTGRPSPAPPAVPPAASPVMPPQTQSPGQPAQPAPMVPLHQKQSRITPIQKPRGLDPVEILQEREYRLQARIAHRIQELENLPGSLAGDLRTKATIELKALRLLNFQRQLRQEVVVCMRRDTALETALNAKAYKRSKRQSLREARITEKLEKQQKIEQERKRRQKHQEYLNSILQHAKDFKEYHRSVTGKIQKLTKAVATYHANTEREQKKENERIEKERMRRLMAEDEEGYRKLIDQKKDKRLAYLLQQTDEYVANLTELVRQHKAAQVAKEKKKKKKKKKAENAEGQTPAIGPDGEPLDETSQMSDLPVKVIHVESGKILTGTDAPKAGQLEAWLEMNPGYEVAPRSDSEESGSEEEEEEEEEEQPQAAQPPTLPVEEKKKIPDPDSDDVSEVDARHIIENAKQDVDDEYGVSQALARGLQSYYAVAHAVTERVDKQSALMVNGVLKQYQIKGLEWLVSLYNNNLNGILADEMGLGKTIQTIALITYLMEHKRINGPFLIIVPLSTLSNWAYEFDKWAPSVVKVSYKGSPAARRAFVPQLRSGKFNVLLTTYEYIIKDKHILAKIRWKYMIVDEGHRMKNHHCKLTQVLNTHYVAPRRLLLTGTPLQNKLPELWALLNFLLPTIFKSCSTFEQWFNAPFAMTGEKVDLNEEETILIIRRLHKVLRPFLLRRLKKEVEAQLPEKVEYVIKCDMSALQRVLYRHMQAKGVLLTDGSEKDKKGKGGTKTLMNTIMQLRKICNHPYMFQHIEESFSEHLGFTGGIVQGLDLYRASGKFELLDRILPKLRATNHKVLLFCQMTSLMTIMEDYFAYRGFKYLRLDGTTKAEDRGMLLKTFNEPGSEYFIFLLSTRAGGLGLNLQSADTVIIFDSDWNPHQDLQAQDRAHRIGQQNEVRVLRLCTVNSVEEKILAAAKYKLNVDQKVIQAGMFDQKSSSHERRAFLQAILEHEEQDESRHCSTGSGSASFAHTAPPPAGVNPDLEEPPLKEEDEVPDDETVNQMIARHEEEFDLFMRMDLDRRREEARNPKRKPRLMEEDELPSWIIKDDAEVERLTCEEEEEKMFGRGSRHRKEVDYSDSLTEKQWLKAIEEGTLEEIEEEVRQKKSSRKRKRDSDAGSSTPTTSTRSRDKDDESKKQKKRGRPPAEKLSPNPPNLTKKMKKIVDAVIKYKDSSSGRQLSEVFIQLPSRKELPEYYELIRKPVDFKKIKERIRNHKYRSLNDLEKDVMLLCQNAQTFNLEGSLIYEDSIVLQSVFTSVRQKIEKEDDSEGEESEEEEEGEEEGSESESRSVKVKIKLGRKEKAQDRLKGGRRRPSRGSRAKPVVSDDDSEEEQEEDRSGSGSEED
# SMARCC1, Q92922, UniProt Q92922, whole entry: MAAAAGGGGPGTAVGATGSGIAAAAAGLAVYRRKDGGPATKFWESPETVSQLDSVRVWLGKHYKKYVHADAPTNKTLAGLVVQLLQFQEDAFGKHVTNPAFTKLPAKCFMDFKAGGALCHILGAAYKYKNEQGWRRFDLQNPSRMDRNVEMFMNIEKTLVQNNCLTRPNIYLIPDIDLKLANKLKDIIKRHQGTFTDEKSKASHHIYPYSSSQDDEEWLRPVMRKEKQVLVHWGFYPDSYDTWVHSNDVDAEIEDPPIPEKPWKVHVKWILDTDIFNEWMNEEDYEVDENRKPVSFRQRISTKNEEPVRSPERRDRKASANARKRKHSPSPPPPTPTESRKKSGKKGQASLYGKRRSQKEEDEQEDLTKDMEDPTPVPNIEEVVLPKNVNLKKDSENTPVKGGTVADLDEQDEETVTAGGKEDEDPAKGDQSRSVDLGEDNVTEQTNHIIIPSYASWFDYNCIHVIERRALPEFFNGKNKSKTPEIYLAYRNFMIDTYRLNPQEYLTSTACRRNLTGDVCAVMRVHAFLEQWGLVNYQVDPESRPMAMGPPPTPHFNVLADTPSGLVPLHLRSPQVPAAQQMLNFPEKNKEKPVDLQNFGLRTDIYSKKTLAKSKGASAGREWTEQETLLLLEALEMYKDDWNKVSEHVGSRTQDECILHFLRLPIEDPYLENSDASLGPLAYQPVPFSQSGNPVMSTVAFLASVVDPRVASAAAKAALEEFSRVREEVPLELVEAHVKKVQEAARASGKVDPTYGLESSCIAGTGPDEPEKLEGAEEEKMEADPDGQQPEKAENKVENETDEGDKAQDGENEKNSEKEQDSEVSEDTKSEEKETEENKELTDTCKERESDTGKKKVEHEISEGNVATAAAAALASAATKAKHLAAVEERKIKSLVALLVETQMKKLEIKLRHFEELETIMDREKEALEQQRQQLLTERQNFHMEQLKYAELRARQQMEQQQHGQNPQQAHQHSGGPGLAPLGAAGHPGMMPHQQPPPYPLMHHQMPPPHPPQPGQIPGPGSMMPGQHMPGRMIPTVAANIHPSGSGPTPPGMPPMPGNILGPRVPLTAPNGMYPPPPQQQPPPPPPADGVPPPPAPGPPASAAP
# How the values were obtained:
# Assay in all cases: PRISMA enrichment of interactor (LFQ) in peptide spot vs all other peptide spots (log2 fold change); higher = stronger / more specific binding of the interactor to the peptide
# NUTF2, P61970 = target: NUTF2, P61970
# Procedure: (§1)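 PRISMA: 221 full-length sORF-encoded peptides (3-15 aa), plus SOS1/GLUT1 control peptides, were spot-synthesized on cellulose membranes in triplicate. Membranes were incubated with HEK293T lysate, and bound proteins were identified by LC-MS/MS with LFQ. Enrichment is the log2 fold change versus all other peptide spots; only significant interactors are listed (cutoff c=6, x0=2.8).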
# NXF1, Q9UBU9 = target: NXF1, Q9UBU9
# Procedure: as §1
# NXT1, Q9UKK6 = target: NXT1, Q9UKK6
# Procedure: as §1
# OGT, O15294 = target: OGT, O15294
# Procedure: as §1
# PAK4, O96013 = target: PAK4, O96013
# Procedure: as §1
# PDCD6, O75340 = target: PDCD6, O75340
# Procedure: as §1
# PDF, Q9HBH1 = target: PDF, Q9HBH1
# Procedure: as §1
# PDLIM7, Q9NR12 = target: PDLIM7, Q9NR12
# Procedure: as §1
# PIN1, Q13526 = target: PIN1, Q13526
# Procedure: as §1
# PINX1, Q96BK5 = target: PINX1, Q96BK5
# Procedure: as §1
# PLK1, P53350 = target: PLK1, P53350
# Procedure: as §1
# POLDIP3, Q9BY77 = target: POLDIP3, Q9BY77
# Procedure: as §1
# POLRMT, O00411 = target: POLRMT, O00411
# Procedure: as §1
# [1] = substrate: PPIF, P30405
# Procedure: as §1
# PPIH, O43447 = target: PPIH, O43447
# Procedure: as §1
# PPIL1, Q9Y3C6 = target: PPIL1, Q9Y3C6
# Procedure: as §1
# PPIL2, Q13356 = target: PPIL2, Q13356
# Procedure: as §1
# PPP1R10, Q96QC0 = target: PPP1R10, Q96QC0
# Procedure: as §1
# PRPF3, O43395 = target: PRPF3, O43395
# Procedure: as §1
# PRPF4, O43172 = target: PRPF4, O43172
# Procedure: as §1
# PRRC2A, P48634 = target: PRRC2A, P48634
# Procedure: as §1
# PRRC2B, Q5JSZ5 = target: PRRC2B, Q5JSZ5
# Procedure: as §1
# PRRC2C, Q9Y520 = target: PRRC2C, Q9Y520
# Procedure: as §1
# PSPC1, Q8WXF1 = target: PSPC1, Q8WXF1
# Procedure: as §1
# PYCR1, P32322 = target: PYCR1, P32322
# Procedure: as §1
# PYCR2, Q96C36 = target: PYCR2, Q96C36
# Procedure: as §1
# RACGAP1, Q9H0H5 = target: RACGAP1, Q9H0H5
# Procedure: as §1
# RAE1, P78406 = target: RAE1, P78406
# Procedure: as §1
# RBM14, Q96PK6 = target: RBM14, Q96PK6
# Procedure: as §1
# RBM27, Q9P2N5 = target: RBM27, Q9P2N5
# Procedure: as §1
# RBM33, Q96EV2 = target: RBM33, Q96EV2
# Procedure: as §1
# RPUSD3, Q6P087 = target: RPUSD3, Q6P087
# Procedure: as §1
# RRM1, P23921 = target: RRM1, P23921
# Procedure: as §1
# RTCB, Q9Y3I0 = target: RTCB, Q9Y3I0
# Procedure: as §1
# RTRAF, Q9Y224 = target: RTRAF, Q9Y224
# Procedure: as §1
# SAFB, Q15424 = target: SAFB, Q15424
# Procedure: as §1
# SAFB2, Q14151 = target: SAFB2, Q14151
# Procedure: as §1
# SDF2L1, Q9HCN8 = target: SDF2L1, Q9HCN8
# Procedure: as §1
# SEH1L, Q96EE3 = target: SEH1L, Q96EE3
# Procedure: as §1
# SF1, Q15637 = target: SF1, Q15637
# Procedure: as §1
# SFPQ, P23246 = target: SFPQ, P23246
# Procedure: as §1
# SLC9A3R2, Q15599 = target: SLC9A3R2, Q15599
# Procedure: as §1
# SLTM, Q9NWH9 = target: SLTM, Q9NWH9
# Procedure: as §1
# SMARCA4, P51532 = target: SMARCA4, P51532
# Procedure: as §1
# SMARCC1, Q92922 = target: SMARCC1, Q92922
# Procedure: as §1
binder,measurement,setting,value
MVDNFYF [ASPN],PRISMA enrichment of interactor (log2),"NUTF2, P61970",5.39
same,PRISMA enrichment of interactor (log2),"NXF1, Q9UBU9",9.28
same,PRISMA enrichment of interactor (log2),"NXT1, Q9UKK6",4.29
same,PRISMA enrichment of interactor (log2),"OGT, O15294",4.97
same,PRISMA enrichment of interactor (log2),"PAK4, O96013",5.32
same,PRISMA enrichment of interactor (log2),"PDCD6, O75340",6.63
same,PRISMA enrichment of interactor (log2),"PDF, Q9HBH1",6.07
same,PRISMA enrichment of interactor (log2),"PDLIM7, Q9NR12",5.87
same,PRISMA enrichment of interactor (log2),"PIN1, Q13526",5.52
same,PRISMA enrichment of interactor (log2),"PINX1, Q96BK5",5.88
same,PRISMA enrichment of interactor (log2),"PLK1, P53350",6.24
same,PRISMA enrichment of interactor (log2),"POLDIP3, Q9BY77",5.88
same,PRISMA enrichment of interactor (log2),"POLRMT, O00411",5.69
same,PRISMA enrichment of interactor (log2),[1],7.3
same,PRISMA enrichment of interactor (log2),"PPIH, O43447",7.02
same,PRISMA enrichment of interactor (log2),"PPIL1, Q9Y3C6",4.89
same,PRISMA enrichment of interactor (log2),"PPIL2, Q13356",7.85
same,PRISMA enrichment of interactor (log2),"PPP1R10, Q96QC0",7.05
same,PRISMA enrichment of interactor (log2),"PRPF3, O43395",5.25
same,PRISMA enrichment of interactor (log2),"PRPF4, O43172",5.09
same,PRISMA enrichment of interactor (log2),"PRRC2A, P48634",7.13
same,PRISMA enrichment of interactor (log2),"PRRC2B, Q5JSZ5",4.2
same,PRISMA enrichment of interactor (log2),"PRRC2C, Q9Y520",4.67
same,PRISMA enrichment of interactor (log2),"PSPC1, Q8WXF1",8.66
same,PRISMA enrichment of interactor (log2),"PYCR1, P32322",7.86
same,PRISMA enrichment of interactor (log2),"PYCR2, Q96C36",8.4
same,PRISMA enrichment of interactor (log2),"RACGAP1, Q9H0H5",4.22
same,PRISMA enrichment of interactor (log2),"RAE1, P78406",6.03
same,PRISMA enrichment of interactor (log2),"RBM14, Q96PK6",6.36
same,PRISMA enrichment of interactor (log2),"RBM27, Q9P2N5",5.42
same,PRISMA enrichment of interactor (log2),"RBM33, Q96EV2",6.99
same,PRISMA enrichment of interactor (log2),"RPUSD3, Q6P087",4.77
same,PRISMA enrichment of interactor (log2),"RRM1, P23921",5.19
same,PRISMA enrichment of interactor (log2),"RTCB, Q9Y3I0",4.77
same,PRISMA enrichment of interactor (log2),"RTRAF, Q9Y224",5.33
same,PRISMA enrichment of interactor (log2),"SAFB, Q15424",7.05
same,PRISMA enrichment of interactor (log2),"SAFB2, Q14151",6.11
same,PRISMA enrichment of interactor (log2),"SDF2L1, Q9HCN8",4.78
same,PRISMA enrichment of interactor (log2),"SEH1L, Q96EE3",4.98
same,PRISMA enrichment of interactor (log2),"SF1, Q15637",5.92
same,PRISMA enrichment of interactor (log2),"SFPQ, P23246",6.15
same,PRISMA enrichment of interactor (log2),"SLC9A3R2, Q15599",8.88
same,PRISMA enrichment of interactor (log2),"SLTM, Q9NWH9",5.73
same,PRISMA enrichment of interactor (log2),"SMARCA4, P51532",4.78
same,PRISMA enrichment of interactor (log2),"SMARCC1, Q92922",5.68

# 4 entries from above, as tab-separated lines:
binder	measurement	setting	value
MVDNFYF [ASPN]	PRISMA enrichment of interactor (log2)	RPUSD3, Q6P087	4.77
same	PRISMA enrichment of interactor (log2)	RRM1, P23921	5.19
same	PRISMA enrichment of interactor (log2)	RTCB, Q9Y3I0	4.77
same	PRISMA enrichment of interactor (log2)	RTRAF, Q9Y224	5.33

# From the supplement of paper PMC10032668
